According to patent US20220332789A1:
No constants are given. Whether binding was seen depends on the method and setting. Some results given as binding are weak or reduced against the parent protein; the word gives no strength. For part of these data: Sequences can lack the tags named with a protein.

Chains of the proteins cited; added tags and fusions are not shown. Lines headed by an entry give the natural chain unless they say otherwise; changes in a name come on top. A line that says so, or that is headed by a name, gives the form on record, which may keep a tag or linker.
IgE-Fc (P01854, form named): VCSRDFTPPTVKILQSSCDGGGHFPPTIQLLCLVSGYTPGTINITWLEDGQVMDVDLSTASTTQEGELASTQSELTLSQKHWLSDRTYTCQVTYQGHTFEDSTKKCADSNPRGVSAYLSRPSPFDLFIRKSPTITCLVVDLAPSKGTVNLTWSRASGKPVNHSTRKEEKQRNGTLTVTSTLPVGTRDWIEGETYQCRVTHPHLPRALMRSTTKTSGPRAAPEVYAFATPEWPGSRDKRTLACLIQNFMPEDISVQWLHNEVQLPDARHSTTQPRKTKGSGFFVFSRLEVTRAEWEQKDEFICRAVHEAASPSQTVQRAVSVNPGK

Columns and labels:
IgE-Fc [1] = biological target: IgE-Fc (UniProt P01854); experiment: SPR dissociation phase, α-Cε4 Fab captured IgE-Fc at average spacings of 40, 80 and 110 nm [middle plot]
IgE-Fc [2] = biological target: IgE-Fc (UniProt P01854); experiment: flow cytometry competition: 1 nM IgE-Fc-A488 binding to FcεRI on RBL SX-38 cells
IgE-Fc [3] = biological target: IgE-Fc (UniProt P01854); experiment: SPR (Biacore)
IgE-Fc [4] = biological target: IgE-Fc (UniProt P01854); experiment: SPR, blank subtracted, anti-IgE molecule 4-0.031 µM over 1:1 α-Cε4 Fab/IgE-Fc complex
IgE-Fc [5] = biological target: IgE-Fc (UniProt P01854); experiment: SPR (Biacore), FIG. 9a
IgE-Fc [6] = biological target: IgE-Fc (UniProt P01854); experiment: SPR dissociation phase, α-Cε4 Fab captured IgE-Fc at average spacings of 40, 80 and 110 nm [right plot]
IgE-Fc [7] = biological target: IgE-Fc (UniProt P01854); experiment: SPR dissociation phase, α-Cε4 Fab captured IgE-Fc at average spacings of 40, 80 and 110 nm [left plot]

Measured: binding

B1: hCD23-G4S3-mIgG2a Fc (Fc fusion)
chain: EASDLLERLREEVTKLRMELQVSSGFVCNTCPEKWINFQRKCYYFGKGTKQWVHARYACDDMEGQLVSIHSPEEQDFLTKHASHTGSWIGLRNLDLKGEFIWVDGSHVDYSNWAPGEPTSRSQGEDCVMMRGSGRWNDAFCDRKLGAWVCDRLATCTPPASEGSAESMGPDSRPDPDGRLPTPSAPLHSGGGGSGGGGSGGGGSASISAMVRSPRGPTIKPCPPCKCPAPNLEGGPSVFIFPPKIKDVLMISLSPIVTCVVVDVSEDDPDVQISWFVNNVEVHTAQTQTHREDYNSTLRVVSALPIQHQDWMSGKAFACAVNNKDLPAPIERTISKPKGSVRAPQVYVLPPPEEEMTKKQVTLTCMVTDFMPEDIYVEWTNNGKTELNYKNTEPVLDSDGSYFMYSKLRVEKKNWVERNSYSCSVVHEGLHNHHTTKSFSRTPGK
not listed: IgE-Fc [6] | IgE-Fc [7]
binds: all other assays above

B2: anti-IgE^4 (Fc fusion)
chain: EASDLLERLREEVTKLRMELQVSSGFVCNTCPEKWINFQRKCYYFGKGTKQWVHARYACDDMEGQLVSIHSPEEQDFLTKHASHTGSWIGLRNLDLKGEFIWVDGSHVDYSNWAPGEPTSRSQGEDCVMMRGSGRWNDAFCDRKLGAWVCDRLATCTPPASEGSAESMGPDSRPDPDGRLPTPSAPLHSGGGGSGGGGSGGGGSGGGGSASISAMVRSPRGPTIKPCPPCKCPAPNLEGGPSVFIFPPKIKDVLMISLSPIVTCVVVDVSEDDPDVQISWFVNNVEVHTAQTQTHREDYNSTLRVVSALPIQHQDWMSGKAFACAVNNKDLPAPIERTISKPKGSVRAPQVYVLPPPEEEMTKKQVTLTCMVTDFMPEDIYVEWTNNGKTELNYKNTEPVLDSDGSYFMYSKLRVEKKNWVERNSYSCSVVHEGLHNHHTTKSFSRTPGK
not listed: IgE-Fc [1] | IgE-Fc [7]
binds: all other assays above

B3: anti-IgE^0 (Fc fusion)
chain: EASDLLERLREEVTKLRMELQVSSGFVCNTCPEKWINFQRKCYYFGKGTKQWVHARYACDDMEGQLVSIHSPEEQDFLTKHASHTGSWIGLRNLDLKGEFIWVDGSHVDYSNWAPGEPTSRSQGEDCVMMRGSGRWNDAFCDRKLGAWVCDRLATCTPPASEGSAESMGPDSRPDPDGRLPTPSAPLHSASISAMVRSPRGPTIKPCPPCKCPAPNLEGGPSVFIFPPKIKDVLMISLSPIVTCVVVDVSEDDPDVQISWFVNNVEVHTAQTQTHREDYNSTLRVVSALPIQHQDWMSGKAFACAVNNKDLPAPIERTISKPKGSVRAPQVYVLPPPEEEMTKKQVTLTCMVTDFMPEDIYVEWTNNGKTELNYKNTEPVLDSDGSYFMYSKLRVEKKNWVERNSYSCSVVHEGLHNHHTTKSFSRTPGK
not listed: IgE-Fc [1] | IgE-Fc [6]
binds: all other assays above
